Measurements reported in PubChem BioAssay AID652243 (Drosophila RNAi Screening Center, 2013).
Purpose: 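Knock-downs that decrease or increase androgen receptor reporter signal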 (primary screen). System: Drosophila S2R+ cells. Knock-down reagent: long dsRNA against Drosophila genes. Time to read-out: 72 h (48 h, then 24 h hormone). Conditions: synthetic androgen R1881 at 10 nM for 24 h. Read-out: 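Firefly light from an androgen-responsive reporter and Renilla control light per well, raw and unnormalised, for each of two replicates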. Reading the numbers: firefly reporter light: higher = more light from androgen-responsive reporter; Renilla control light: higher = more constitutive control signal (cell number, transfection). Rule for the call: 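Hit when the log firefly-to-Renilla ratio dropped or increased by a fixed fold versus the mean of GFP or LacZ controls across duplicate plates; lowering cut given as 1.5 and as 3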. Meaning of the calls: active = hit: reporter lowered or raised; inactive = no hit.
The screen tested about 24,000 reagents; shown is a random part of those that have a named target and a result. In the full data, 246 (1%) got an active call. 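Plates not normalised; calls are printed but the firefly/Renilla ratio behind them is not deposited; fold cut for lowering reported inconsistently.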 Raw values vary from plate to plate and are shown uncorrected. Reagents against one gene are numbered here. Not stated in the record: the amount of reagent.

gene | dsRNA no. | firefly reporter light, replicate 1 | firefly reporter light, replicate 2 | Renilla control light, replicate 1 | Renilla control light, replicate 2 | activity call
CG13067 | 1 | 2.45e5 | 2.84e5 | 2.39e6 | 1.98e6 | inactive
AlkB | 1 | 3.18e5 | 3.36e5 | 2.25e5 | 2.73e5 | inactive
Grasp65 | 1 | 85458 | 70699 | 1.10e6 | 1.36e6 | inactive
Grasp65 | 2 | 5.08e5 | 4.74e5 | 1.31e6 | 1.07e6 | inactive
CG6184 | 1 | 2.33e5 | 3.13e5 | 2.91e6 | 2.96e6 | inactive
cnir | 1 | 1.68e5 | 1.10e5 | 1.15e6 | 8.96e5 | inactive
cnir | 2 | 5.01e5 | 3.87e5 | 9.39e5 | 8.50e5 | inactive
cg | 1 | 5.33e5 | 5.30e5 | 1.44e6 | 1.68e6 | inactive
cg | 2 | 3.46e5 | 2.44e5 | 1.09e6 | 1.35e6 | inactive
Kyat | 1 | 2.28e5 | 2.00e5 | 2.57e6 | 2.40e6 | inactive
CG32971 | 1 | 5.14e5 | 4.64e5 | 9.36e5 | 79119 | inactive
Jhbp1 | 1 | 31360 | 68560 | 1.38e6 | 1.54e6 | inactive
Jhbp1 | 2 | 4.20e5 | 3.56e5 | 5.71e5 | 6.73e5 | inactive
CG2924 | 1 | 1.38e5 | 75479 | 1.24e6 | 8.08e5 | inactive
CG2924 | 2 | 1.96e5 | 3.80e5 | 8.96e5 | 1.36e6 | active
rgr | 1 | 8.19e5 | 1.02e6 | 2.36e6 | 2.30e6 | inactive
rgr | 2 | 9.45e5 | 1.12e6 | 1.02e6 | 1.04e6 | inactive
PolE2 | 1 | 7.72e5 | 8.81e5 | 1.03e6 | 1.88e6 | inactive
Atac3 | 1 | 1.17e5 | 79154 | 9.34e5 | 1.12e6 | inactive
AANATL6 | 1 | 80882 | 87874 | 1.03e6 | 1.23e6 | inactive
CNMaR | 1 | 45097 | 52795 | 1.12e5 | 1.01e5 | inactive
CNMaR | 2 | 1.17e5 | 98269 | 2.05e6 | 1.24e6 | inactive
ClC-a | 1 | 2.16e5 | 2.63e5 | 2.56e6 | 2.70e6 | inactive
ClC-a | 2 | 1.46e5 | 1.51e5 | 2.32e6 | 2.72e6 | inactive
ClC-a | 3 | 56282 | 53932 | 4.01e5 | 6.49e5 | inactive
CG9222 | 1 | 1.59e5 | 1.19e5 | 1.47e6 | 1.05e6 | inactive
CG7295 | 1 | 1.79e5 | 1.23e5 | 8.35e5 | 6.96e5 | inactive
Obp56i | 1 | 1.55e5 | 1.76e5 | 1.44e5 | 70844 | inactive
fj | 1 | 98169 | 1.56e5 | 1.60e6 | 1.60e6 | inactive
fj | 2 | 3.01e5 | 3.25e5 | 4.71e5 | 5.16e5 | inactive
sNPF | 1 | 3.80e5 | 3.20e5 | 7.66e5 | 5.25e5 | inactive
Wdr92 | 1 | 2.42e5 | 1.28e5 | 2.84e6 | 1.70e6 | inactive

Entries above marked active (1):
gene | dsRNA no. | firefly reporter light, replicate 1 | firefly reporter light, replicate 2 | Renilla control light, replicate 1 | Renilla control light, replicate 2 | activity call
CG2924 | 2 | 1.96e5 | 3.80e5 | 8.96e5 | 1.36e6 | active

The listing continues.
gene | dsRNA no. | firefly reporter light, replicate 1 | firefly reporter light, replicate 2 | Renilla control light, replicate 1 | Renilla control light, replicate 2 | activity call
AANATL4 | 1 | 25310 | 72858 | 6.30e5 | 7.93e5 | inactive
ERp44 | 1 | 98912 | 85681 | 6.70e5 | 6.43e5 | inactive
Fum1 | 1 | 5.79e5 | 5.48e5 | 2.25e6 | 1.66e6 | inactive
Fum1 | 2 | 5.29e5 | 4.62e5 | 7.68e5 | 8.63e5 | inactive
Vha68-3 | 1 | 2.14e5 | 2.37e5 | 1.50e6 | 1.64e6 | inactive
Vha68-3 | 2 | 8.88e5 | 9.87e5 | 7.31e5 | 9.89e5 | inactive
CG17328 | 1 | 4.30e5 | 3.84e5 | 3.88e6 | 3.64e6 | inactive
CG17328 | 2 | 6.49e5 | 8.60e5 | 1.45e6 | 2.32e6 | inactive
CG17328 | 3 | 3.98e5 | 6.44e5 | 8.03e5 | 8.10e5 | inactive
Mat1 | 1 | 2.46e5 | 1.44e5 | 1.49e6 | 1.13e6 | inactive
Mat1 | 2 | 2.57e5 | 3.53e5 | 8.70e5 | 9.97e5 | inactive
Rai1 | 1 | 5.24e5 | 4.62e5 | 3.39e6 | 2.24e6 | inactive
Rai1 | 2 | 3.94e5 | 2.67e5 | 1.36e6 | 1.32e6 | inactive
CG14043 | 1 | 1.32e5 | 52594 | 1.18e6 | 8.50e5 | inactive
CG14043 | 2 | 4.00e5 | 3.93e5 | 1.27e6 | 1.09e6 | inactive
Fitm | 1 | 7.74e5 | 8.82e5 | 1.16e6 | 1.18e6 | inactive
Fitm | 2 | 3.32e5 | 2.83e5 | 7.81e5 | 9.23e5 | inactive
CG11977 | 1 | 91853 | 1.06e5 | 1.76e6 | 2.00e6 | inactive
IKKepsilon | 1 | 77101 | 79154 | 9.26e5 | 7.46e5 | inactive
IKKepsilon | 2 | – | – | – | – | inactive
IKKepsilon | 3 | – | – | – | – | inactive
Mhc | 1 | 1.09e5 | 1.36e5 | 1.26e6 | 1.35e6 | inactive
Mhc | 2 | 4.10e5 | 3.47e5 | 1.11e6 | 9.45e5 | inactive
Strica | 1 | 3.22e5 | 3.15e5 | 2.22e6 | 1.53e6 | inactive
Vps11 | 1 | 2.51e5 | 3.27e5 | 8.80e5 | 1.13e6 | inactive
Vps11 | 2 | 1.12e6 | 9.81e5 | 2.51e6 | 2.22e6 | inactive
